Experimental data taken from paper PMC7078224.
No constants are given. Whether binding was seen depends on the method and setting. Binding seen in cells or lysates may run through a third protein. A yes stands for co-enrichment or nearness to the bait. Other partners may have been found. Where a sequence is shown, tags or fusion partners need not be part of it.

T1: DDK-tagged ERRA (estrogen related receptor, alpha) (UniProt O08580)
T1 sequence: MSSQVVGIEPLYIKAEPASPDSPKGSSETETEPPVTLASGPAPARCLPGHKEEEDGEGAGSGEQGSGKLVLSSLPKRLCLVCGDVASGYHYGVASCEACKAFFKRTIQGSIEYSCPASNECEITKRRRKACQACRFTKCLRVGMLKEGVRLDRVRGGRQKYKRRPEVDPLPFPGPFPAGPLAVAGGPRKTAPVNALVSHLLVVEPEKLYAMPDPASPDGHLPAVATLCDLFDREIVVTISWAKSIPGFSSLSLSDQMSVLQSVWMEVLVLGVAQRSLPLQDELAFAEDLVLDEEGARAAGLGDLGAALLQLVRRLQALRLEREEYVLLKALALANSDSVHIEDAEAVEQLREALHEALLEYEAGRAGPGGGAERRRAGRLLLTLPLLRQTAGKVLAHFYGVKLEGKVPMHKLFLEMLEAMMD


Biological target: T1, DDK-tagged ERRA (estrogen related receptor, alpha)
Assay: affinity purification with mass spectrometry; DDK-tagged ERRA overexpressed in murine brown preadipocytes; Pierce IP Lysis Buffer; pulled down with FLAG-M2 magnetic beads; TMT labeling and LC-MS; IgG samples as control

| binding | Binder |
| --- | --- |
| binds | leucine rich repeat (in FLII) interacting protein 1 (LRRFIP1) (protein, UniProt Q3UZ39 1-729) MTSPEGAQNKEIDCLSPEAQRLAEARLAAKRAARAEAREIRMKELERQQKEVEERPDKDFAEKGSRNMPSLSAATLASLGGTSSRRGSGDTSISMDTEASIREIKDSLAEVEEKYKKAMVSNAQLDNEKTNFMYQVDTLKDMLLELEEQLAESQRQYEEKNKEFEREKHAHSILQFQFAEVKEALRQREEMLEKHGIILNSEIATNGETSDTVNDVGYQAPTKITKEELNALKSAGEGTLGKAKEVEVKKEIVEKVGQRETLQNSEQEQPKPNTGKDCVDRGVSHPGEKAENQRPAEDSALSPGPLAGAKCEQQVQSQDQENTSDLKNSEQIESHKVTNKSDSRASNSPEQSSCLEGLDSEVPGPTEDLKTDLGKGSFEPCPDYILGQTAEIDKVTCTDSRGTGGNQREDEVQAGDTTVEDQVGTVASGPAKQSKGTENHGESCLKDGLGQSSERELTQEVAEPEEAIVQIPQAGGENTITKADDAEGRDEKPIQAEAQASPGAPINQSGHQDTTGPGSTDAQRTPPHAKERKKQGKSEQQAEALDSPQKKTKNKKKKNKKKKAATPAETCRDANEELNCQDPDVGDMEEEERLQVTDKKQASGSPEQKIRAGSREPVEDPQSGSSGKQNKVEEDGPTEGPTDILDQNSPQCEDREISPVGEKGPQCDTSQIGSEEGHVTSQHGGQAVENHNLDNSDLSGQLEGFNSESGGQAREEVGNSKSKEDCTMS |
| binds | flightless I actin binding protein (FLII) (protein, UniProt Q9JJ28 1-1271) MEATGVLPFVRGVDLSGNDFKGGYFPENVKAMTSLRWLKLNRTGLCYLPEELAALQKLEHLSVSHNHLTTLHGELSSLPSLRAIVARANSLKNSGVPDDIFKLDDLSVLDLSHNQLTECPRELENAKNMLVLNLSHNGIDSIPNQLFINLTDLLYLDLSENRLESLPPQMRRLVHLQTLVLNGNPLLHAQLRQLPAMMALQTLHLRNTQRTQSNLPTSLEGLSNLSDVDLSCNDLTRVPECLYTLPSLRRLNLSSNQIAELSLCIDQWVHLETLNLSRNQLTSLPSAICKLTKLKKLYLNSNKLDFDGLPSGIGKLTSLEEFMAANNNLELIPESLCRCPKLKKLVLNKNRLVTLPEAIHFLTEIQVLDVRENPSLVMPPKPADRTAEWYNIDFSLQNQLRLAGASPATVAAAAAVGSGSKDPLARKMRLRRRKDSAQDVQAKQVLKGMSDVAQEKNKNQEESIDARAPGGKVRRWDQGLEKPRLDYSEFFTEDVGQLPGLTIWQIENFVPVLVEEAFHGKFYEADCYIVLKTFLDDSGSLNWEIYYWIGGEATLDKKACSAIHAVNLRNYLGAECRTVREEMGDESEEFLQVFDNDISYIEGGTASGFYTVEDTHYVTRMYRVYGKKNIKLEPVPLKGSSLDPRFVFLLDQGLDIYVWRGAQATLSNTTKARLFAEKINKNERKGKAEITLLVQGQEPPGFWDVLGGEPSEIKNHVPDDFWPPQPKLYKVGLGLGYLELPQINYKLSVEHKKRPKVELMPGMRLLQSLLDTRCVYILDCWSDVFIWLGRKSPRLVRAAALKLGQELCGMLHRPRHTVVSRSLEGTEAQVFKAKFKNWDDVLTVDYTRNAEAVLQGQGLSGKVKRDTEKTDQMKADLTALFLPRQPPMPLAEAEQLMEEWNEDLDGMEGFVLEGRKFTRLPEEEFGHFYTQDCYVFLCRYWVPVEYEEEEKTEDKEGKASAEAREGEEAAAEAEEKQPEEDFQCIVYFWQGREASNMGWLTFTFSLQKKFESLFPGKLEVVRMTQQQENPKFLSHFKRKFIIHRGKRKVTQGTLQPTLYQIRTNGSALCTRCIQINTDSSLLNSEFCFILKVPFESEDNQGIVYAWVGRASDPDEAKLAEDILNTMFDASYSKQVINEGEEPENFFWVGIGAQKPYDDDAEYMKHTRLFRCSNEKGYFAVTEKCSDFCQDDLADDDIMLLDNGQEVYMWVGTQTSQVEIKLSLKACQVYIQHTRSKEHERPRRLRLVRKGNEQRAFTRCFHAWSTFRQAPA |
